Results deposited as PubChem BioAssay AID1259254 (NCATS, 2017).
Screen: 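Finding genes that stop cells copying their DNA twice in one cycle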 (primary screen). System: human HCT116 colorectal cancer cells. Knock-down reagent: single siRNA against human genes. Timing: 3 days. Read-out: 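Imaged Hoechst DNA stain sorts each cell into a cycle phase by DNA amount; per plate, G2 fraction set to 0% for non-targeting and 100% for GMNN siRNA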. Direction: G2 robust z-score: higher = more G2 cells, more excess DNA replication. Hit rule: 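An siRNA counts as active if its G2 robust z-score lies at least 5 MADs above the screen median; here such calls match roughly 38% of GMNN control or more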.
Here is one part, drawn at random, of about 59,000 reagents. About 1,550 of them (2.6%) count as active. 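G2 share is only a proxy for re-replication; each gene was hit by three separate siRNAs, and active genes were retested.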 Reagents against one gene are numbered here. Further read-outs or replicates are left out here. The record does not give: the amount of reagent.

With LSAMP #1, what was measured?
G2 robust z-score: 1.84; Call: inactive

How did the screen score LSAMP #2?
G2 robust z-score: -1.47; Call: inactive

Which result is listed for LSAMP #3?
G2 robust z-score: 0.354; Call: inactive

How did the screen score DAW1 #1?
G2 robust z-score: -0.28; Call: inactive

With DAW1 #2, what was measured?
G2 robust z-score: 0.884; Call: inactive

What is on record for DAW1 #3?
G2 robust z-score: -0.144; Call: inactive

For UBXN4 #1, what does the deposit list?
G2 robust z-score: -0.701; Call: inactive

For UBXN4 #2, what does the deposit list?
G2 robust z-score: -0.597; Call: inactive

What is on record for UBXN4 #3?
G2 robust z-score: 0.619; Call: inactive

Targets above whose target name begins with L or l (3):
LSAMP #1 — G2 robust z-score: 1.84; Call: inactive
LSAMP #2 — G2 robust z-score: -1.47; Call: inactive
LSAMP #3 — G2 robust z-score: 0.354; Call: inactive

The results go on.
For RPAP2 #1, how do the results read?
G2 robust z-score: -1.21; Call: inactive

With RPAP2 #2, what does the deposit list?
G2 robust z-score: -0.599; Call: inactive

For RPAP2 #3, how do the results read?
G2 robust z-score: 0.55; Call: inactive

What did the screen give for ITFG2-AS1 #1?
G2 robust z-score: 0.889; Call: inactive

For ITFG2-AS1 #2, how do the results read?
G2 robust z-score: -0.383; Call: inactive

With ITFG2-AS1 #3, how do the results read?
G2 robust z-score: -0.935; Call: inactive

What did the screen give for SLC5A10 #1?
G2 robust z-score: 1.67; Call: inactive

What is on record for SLC5A10 #2?
G2 robust z-score: -1.21; Call: inactive

What is on record for SLC5A10 #3?
G2 robust z-score: 6.17; Call: active

For HSD17B12 #1, how do the results read?
G2 robust z-score: 0.305; Call: inactive

For HSD17B12 #2, what was measured?
G2 robust z-score: 1.25; Call: inactive

For HSD17B12 #3, what was measured?
G2 robust z-score: 0.259; Call: inactive

With CTCFL #1, what does the deposit list?
G2 robust z-score: 1.73; Call: inactive

For CTCFL #2, how do the results read?
G2 robust z-score: -0.494; Call: inactive

What is on record for CTCFL #3?
G2 robust z-score: 2.37; Call: inactive
